Among the data in PMC7862700 are binding signal values, retold here.

The list shows a part of the results, in another mix than the full data. At the low end of the ranking, values are background and their order means little.

What all share (test): DAPPL (digital affinity profiling via proximity ligation, sequencing)
What all share (settings): 10 mM Tris-HCl pH 7.5, 50 mM NaCl, 1 mM DTT, 4% glycerol, room temperature, 30 min; GST-TFs on glutathione beads, 16-mer random dsDNA library, 0.1% …; high values mean tight binding; double strand, one strand shown; scale: fold enrichment (6-mer frequency, TF over GST control)

The target in one test is T1, ELK1 (UniProt P19419).
T1 sequence: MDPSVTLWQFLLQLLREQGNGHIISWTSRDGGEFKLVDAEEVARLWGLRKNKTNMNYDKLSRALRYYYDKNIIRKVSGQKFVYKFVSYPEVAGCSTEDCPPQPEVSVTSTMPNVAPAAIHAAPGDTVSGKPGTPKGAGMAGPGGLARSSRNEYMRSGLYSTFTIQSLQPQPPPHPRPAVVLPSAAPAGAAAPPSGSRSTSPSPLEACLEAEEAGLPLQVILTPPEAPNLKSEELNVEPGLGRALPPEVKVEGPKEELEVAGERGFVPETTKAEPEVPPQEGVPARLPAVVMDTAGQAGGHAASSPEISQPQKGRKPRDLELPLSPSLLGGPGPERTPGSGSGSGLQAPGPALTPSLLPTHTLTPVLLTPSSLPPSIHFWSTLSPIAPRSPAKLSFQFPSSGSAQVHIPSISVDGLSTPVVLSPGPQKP

The target in another test is T2, ELK3 (UniProt P41970).
T2 sequence: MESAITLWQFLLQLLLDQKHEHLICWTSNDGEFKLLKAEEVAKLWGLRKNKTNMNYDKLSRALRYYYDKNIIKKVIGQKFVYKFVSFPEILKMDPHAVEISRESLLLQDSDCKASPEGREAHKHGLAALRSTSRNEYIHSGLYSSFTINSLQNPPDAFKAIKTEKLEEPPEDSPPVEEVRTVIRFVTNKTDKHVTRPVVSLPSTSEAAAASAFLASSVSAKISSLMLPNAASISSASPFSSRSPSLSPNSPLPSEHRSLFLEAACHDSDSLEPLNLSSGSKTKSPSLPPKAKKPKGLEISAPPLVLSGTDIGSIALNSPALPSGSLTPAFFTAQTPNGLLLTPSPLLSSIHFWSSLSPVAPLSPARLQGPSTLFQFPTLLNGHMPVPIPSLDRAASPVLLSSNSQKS

A further test deals with T3, SPIC (UniProt Q8N5J4).
T3 sequence: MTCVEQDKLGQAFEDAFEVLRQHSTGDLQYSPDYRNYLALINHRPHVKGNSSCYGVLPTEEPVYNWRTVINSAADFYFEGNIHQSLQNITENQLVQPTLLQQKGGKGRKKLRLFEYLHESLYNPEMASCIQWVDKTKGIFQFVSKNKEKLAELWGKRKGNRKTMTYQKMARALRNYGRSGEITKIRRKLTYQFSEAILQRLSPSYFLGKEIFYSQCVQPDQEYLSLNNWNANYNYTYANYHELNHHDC

The target of another test is T4, ETS2 (UniProt P15036).
T4 sequence: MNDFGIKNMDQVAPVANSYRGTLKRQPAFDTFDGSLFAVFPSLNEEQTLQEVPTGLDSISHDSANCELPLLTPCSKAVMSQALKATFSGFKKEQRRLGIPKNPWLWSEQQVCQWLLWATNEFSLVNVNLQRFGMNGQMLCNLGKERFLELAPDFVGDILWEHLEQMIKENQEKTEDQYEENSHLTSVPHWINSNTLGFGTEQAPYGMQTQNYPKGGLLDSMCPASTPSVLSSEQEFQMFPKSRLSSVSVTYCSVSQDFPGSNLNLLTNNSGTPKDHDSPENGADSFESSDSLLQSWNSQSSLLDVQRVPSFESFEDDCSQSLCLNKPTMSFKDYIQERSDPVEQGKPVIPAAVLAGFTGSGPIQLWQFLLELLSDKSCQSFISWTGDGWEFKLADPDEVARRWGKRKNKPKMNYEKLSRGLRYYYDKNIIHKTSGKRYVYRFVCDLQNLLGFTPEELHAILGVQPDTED

The target of another test is T5, ETV3 (UniProt P41162-2).
T5 sequence: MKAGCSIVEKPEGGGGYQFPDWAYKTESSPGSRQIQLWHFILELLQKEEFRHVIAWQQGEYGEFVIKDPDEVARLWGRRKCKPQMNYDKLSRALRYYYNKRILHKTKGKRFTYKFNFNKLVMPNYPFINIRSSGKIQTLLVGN

Regarding GTAGGG, the binding signal in the test with ELK1 was 0.731; with ELK3 it was 0.624; with SPIC, 0.782; with ETS2, 0.695; in the test with ETV3, 0.718.
Taken in the same sequence, the figures for CGTTAG were 0.882, 0.814, 0.737, 0.806 and 0.785.
As to ACGTGT, the binding signal with ELK1 came to 0.61; with ELK3, 0.671; in the test with SPIC, 0.637; with ETS2, 0.667; in the test with ETV3, 0.673.
Taken in the same sequence, the figures for ACGGGT were 0.893, 0.867, 0.837, 0.882 and 0.893.
As for CGGCGT, the binding signal with ELK1 was 0.904; in the test with ELK3 it was 0.893; with SPIC it was 0.825; with ETS2 it was 0.739; with ETV3, 0.867.
Taken in the same sequence, the figures for CCGGAG were 0.506, 0.55, 0.474, 0.504 and 0.541.
As to GAGAGC, the binding signal stood at 0.353 with ELK1; 0.374 in the test with ELK3; 0.379 with SPIC; 0.318 with ETS2; 0.378 in the test with ETV3.
Taken in the same sequence, the figures for CCAGTA were 0.676, 0.725, 0.623, 0.66 and 0.684.
Taken in the same sequence, the figures for GGACGC were 0.375, 0.373, 0.426, 0.397 and 0.382.
CGAGAC: the binding signal in the test with ELK1 was 0.544; in the test with ELK3, 0.616; with SPIC, 0.605; in the test with ETS2, 0.573; in the test with ETV3 it was 0.546.
Taken in the same sequence, the figures for GAGCCT were 0.858, 0.804, 0.705, 0.819 and 0.861.
Taken in the same sequence, the figures for ACAACG were 0.887, 0.915, 0.966, 0.926 and 0.92.
Taken in the same sequence, the figures for GTGAGG were 0.284, 0.266, 0.243, 0.263 and 0.258.
Take CAAGCG: the binding signal was found to be 0.881 with ELK1; 0.904 in the test with ELK3; 0.816 with SPIC; 0.933 with ETS2; 0.931 in the test with ETV3.
Taken in the same sequence, the figures for CAAGTC were 0.91, 0.87, 0.857, 0.822 and 0.822.
Taken in the same sequence, the figures for CGCCGT were 1, 0.826, 0.914, 0.863 and 0.974.
As for GACCCG, the binding signal is 0.835 with ELK1; 0.827 in the test with ELK3; 0.712 in the test with SPIC; 0.862 with ETS2; 0.908 with ETV3.
Taken in the same sequence, the figures for AGGTAG were 0.706, 0.577, 0.679, 0.663 and 0.651.
As to AGCAGG, the binding signal came to 0.907 with ELK1; 0.953 in the test with ELK3; 0.823 with SPIC; 0.946 with ETS2; 0.936 with ETV3.
Taken in the same sequence, the figures for CGGGGA were 0.452, 0.448, 0.475, 0.426 and 0.407.
Taken in the same sequence, the figures for GGACGG were 0.477, 0.52, 0.432, 0.527 and 0.508.
Taken in the same sequence, the figures for GGGCCC were 0.801, 0.711, 0.807, 0.824 and 0.822.
For the sequence GGGTAA, the binding signal came to 0.771 with ELK1; 0.876 with ELK3; 0.75 in the test with SPIC; 0.872 in the test with ETS2; 0.769 with ETV3.
Taken in the same sequence, the figures for GACAGA were 0.633, 0.585, 0.61, 0.639 and 0.607.
Taken in the same sequence, the figures for TACCGT were 0.674, 0.712, 0.661, 0.7 and 0.656.
In the case of GGCGAG, the binding signal in the test with ELK1 was 0.515; with ELK3, 0.561; with SPIC it was 0.59; with ETS2, 0.559; in the test with ETV3, 0.493.
Taken in the same sequence, the figures for GAGCCA were 0.555, 0.651, 0.701, 0.62 and 0.583.
Taken in the same sequence, the figures for ATGTCG were 0.643, 0.57, 0.641, 0.616 and 0.656.
Taken in the same sequence, the figures for CGAGTC were 0.503, 0.655, 0.497, 0.512 and 0.52.
In the case of CCCGGG, the binding signal with ELK1 worked out at 0.828; with ELK3 it was 0.659; with SPIC it was 0.831; in the test with ETS2, 0.807; with ETV3, 0.8.
Taken in the same sequence, the figures for CCCAGC were 0.957, 0.951, 0.94, 0.914 and 0.866.
Taken in the same sequence, the figures for CAGGTG were 0.611, 0.578, 0.564, 0.545 and 0.595.
